Results are given in words; binding and its absence hold for the method and conditions named. Binding seen in cells or lysates may run through a third protein. Some results given as binding are weak or reduced against the parent protein; the word gives no strength.
Tests used:
[1] = target: CTIP2 (construct not stated) (UniProt Q9C0K0); test: co-IP; sequential immunoprecipitation: FLAG-DCAF1 complexes eluted with FLAG peptides from the first IP, then second IP targeting CTIP2; western blot
Tap-CTIP2 = Tap-CTIP2 (UniProt Q9C0K0); test: co-IP; nuclear extracts of transfected cells, two days post-transfection; immunoprecipitation of the tagged bait (Tap-CTIP2, HA-Vpr, or FLAG-DCAF1 with anti-FLAG), western blot; Figure 4E from MG132-treated cells; Figure 5C with strong overexpression of Tap-CTIP2
HA-Vpr wt (HIV-1) = HA-Vpr wt (HIV-1) (UniProt P12520); test: as above
FLAG-DCAF1 = FLAG-DCAF1 (UniProt Q9Y4B6); test: as above
GFP-DCAF1 = GFP-DCAF1 (UniProt Q9Y4B6); test: FRET or BRET; FLIM-FRET in transfected microglial cells; eGFP-DCAF1 donor, mRFP-CTIP2 acceptor; lifetime of GFP in the nuclear structures; with or without Vpr

The chains behind the UniProt entries cited, without tags or fusion partners.
UniProt Q9C0K0: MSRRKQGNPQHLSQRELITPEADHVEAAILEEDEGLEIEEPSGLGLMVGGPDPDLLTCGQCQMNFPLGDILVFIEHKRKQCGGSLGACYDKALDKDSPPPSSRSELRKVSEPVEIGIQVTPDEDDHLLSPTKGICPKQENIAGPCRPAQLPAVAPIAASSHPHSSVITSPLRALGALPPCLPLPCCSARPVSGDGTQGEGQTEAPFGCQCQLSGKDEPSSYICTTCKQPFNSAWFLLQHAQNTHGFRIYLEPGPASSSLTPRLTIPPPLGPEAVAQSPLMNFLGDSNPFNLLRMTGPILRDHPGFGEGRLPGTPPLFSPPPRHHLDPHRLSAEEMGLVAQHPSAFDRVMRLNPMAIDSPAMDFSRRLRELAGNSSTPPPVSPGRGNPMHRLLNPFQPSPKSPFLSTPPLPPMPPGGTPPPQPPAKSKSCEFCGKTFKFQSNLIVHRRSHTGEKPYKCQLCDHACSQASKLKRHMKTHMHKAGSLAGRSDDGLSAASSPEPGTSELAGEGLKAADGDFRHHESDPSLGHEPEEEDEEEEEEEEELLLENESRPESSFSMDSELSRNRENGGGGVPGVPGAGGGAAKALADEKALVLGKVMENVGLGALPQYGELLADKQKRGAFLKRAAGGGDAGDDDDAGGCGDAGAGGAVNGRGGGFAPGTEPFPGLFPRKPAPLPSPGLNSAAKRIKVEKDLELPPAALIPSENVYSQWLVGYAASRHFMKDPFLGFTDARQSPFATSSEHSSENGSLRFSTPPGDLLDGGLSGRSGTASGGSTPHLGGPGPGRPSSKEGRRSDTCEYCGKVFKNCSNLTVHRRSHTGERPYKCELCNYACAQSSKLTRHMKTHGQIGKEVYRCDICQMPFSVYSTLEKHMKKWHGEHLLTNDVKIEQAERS
UniProt P12520: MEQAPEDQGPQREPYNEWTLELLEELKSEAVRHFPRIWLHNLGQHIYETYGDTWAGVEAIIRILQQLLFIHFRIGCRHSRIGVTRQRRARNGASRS
UniProt Q9Y4B6: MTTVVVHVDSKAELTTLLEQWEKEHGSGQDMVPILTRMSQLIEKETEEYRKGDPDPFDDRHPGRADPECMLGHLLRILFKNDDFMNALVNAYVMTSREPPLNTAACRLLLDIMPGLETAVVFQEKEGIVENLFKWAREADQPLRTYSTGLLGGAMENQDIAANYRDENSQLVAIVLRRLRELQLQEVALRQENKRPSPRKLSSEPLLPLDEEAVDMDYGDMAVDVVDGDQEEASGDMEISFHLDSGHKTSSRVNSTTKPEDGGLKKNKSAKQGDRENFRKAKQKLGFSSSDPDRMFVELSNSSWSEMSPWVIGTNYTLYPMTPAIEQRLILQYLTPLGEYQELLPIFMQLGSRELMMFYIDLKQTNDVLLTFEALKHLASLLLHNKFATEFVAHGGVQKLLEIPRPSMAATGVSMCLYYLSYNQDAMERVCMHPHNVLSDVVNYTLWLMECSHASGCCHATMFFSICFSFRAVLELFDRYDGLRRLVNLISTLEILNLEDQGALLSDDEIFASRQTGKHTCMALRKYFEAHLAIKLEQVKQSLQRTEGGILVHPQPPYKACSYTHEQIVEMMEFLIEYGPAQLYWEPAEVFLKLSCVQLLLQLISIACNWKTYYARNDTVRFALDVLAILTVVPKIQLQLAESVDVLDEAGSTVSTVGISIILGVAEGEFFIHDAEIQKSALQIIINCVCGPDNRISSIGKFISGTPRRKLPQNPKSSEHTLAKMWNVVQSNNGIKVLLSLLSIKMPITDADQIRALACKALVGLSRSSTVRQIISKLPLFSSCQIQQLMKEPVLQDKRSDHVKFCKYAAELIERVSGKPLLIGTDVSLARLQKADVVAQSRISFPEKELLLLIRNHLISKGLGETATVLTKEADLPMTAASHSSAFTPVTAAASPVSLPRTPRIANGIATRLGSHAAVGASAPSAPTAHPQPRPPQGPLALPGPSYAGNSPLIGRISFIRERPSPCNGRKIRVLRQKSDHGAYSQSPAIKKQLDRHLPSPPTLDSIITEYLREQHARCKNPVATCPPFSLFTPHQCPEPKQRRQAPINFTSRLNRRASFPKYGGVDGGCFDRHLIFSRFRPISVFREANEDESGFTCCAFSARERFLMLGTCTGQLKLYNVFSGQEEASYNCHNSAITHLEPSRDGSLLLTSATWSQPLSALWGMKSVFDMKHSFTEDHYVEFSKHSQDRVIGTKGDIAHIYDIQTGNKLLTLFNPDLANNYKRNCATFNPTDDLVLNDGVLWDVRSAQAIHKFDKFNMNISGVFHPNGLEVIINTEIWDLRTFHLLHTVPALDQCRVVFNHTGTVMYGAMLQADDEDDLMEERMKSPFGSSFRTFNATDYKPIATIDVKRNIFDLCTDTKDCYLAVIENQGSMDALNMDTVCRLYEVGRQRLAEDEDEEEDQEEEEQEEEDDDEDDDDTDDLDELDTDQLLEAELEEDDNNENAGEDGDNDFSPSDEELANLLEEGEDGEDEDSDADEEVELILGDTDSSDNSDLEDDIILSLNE
UniProt Q92769: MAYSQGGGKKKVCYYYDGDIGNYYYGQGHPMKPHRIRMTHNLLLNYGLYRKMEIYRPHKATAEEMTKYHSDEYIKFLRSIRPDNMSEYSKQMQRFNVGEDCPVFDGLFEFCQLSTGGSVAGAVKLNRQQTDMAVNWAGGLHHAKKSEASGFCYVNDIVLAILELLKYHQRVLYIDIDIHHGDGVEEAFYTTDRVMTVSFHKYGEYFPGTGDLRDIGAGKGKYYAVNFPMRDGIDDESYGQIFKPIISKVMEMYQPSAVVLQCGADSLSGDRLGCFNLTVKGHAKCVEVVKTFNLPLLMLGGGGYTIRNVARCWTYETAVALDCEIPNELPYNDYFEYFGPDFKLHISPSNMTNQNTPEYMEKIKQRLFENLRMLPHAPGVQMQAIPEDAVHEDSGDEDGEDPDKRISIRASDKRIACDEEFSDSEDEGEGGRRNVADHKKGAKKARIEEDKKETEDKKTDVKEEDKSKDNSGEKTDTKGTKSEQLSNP
UniProt Q16531: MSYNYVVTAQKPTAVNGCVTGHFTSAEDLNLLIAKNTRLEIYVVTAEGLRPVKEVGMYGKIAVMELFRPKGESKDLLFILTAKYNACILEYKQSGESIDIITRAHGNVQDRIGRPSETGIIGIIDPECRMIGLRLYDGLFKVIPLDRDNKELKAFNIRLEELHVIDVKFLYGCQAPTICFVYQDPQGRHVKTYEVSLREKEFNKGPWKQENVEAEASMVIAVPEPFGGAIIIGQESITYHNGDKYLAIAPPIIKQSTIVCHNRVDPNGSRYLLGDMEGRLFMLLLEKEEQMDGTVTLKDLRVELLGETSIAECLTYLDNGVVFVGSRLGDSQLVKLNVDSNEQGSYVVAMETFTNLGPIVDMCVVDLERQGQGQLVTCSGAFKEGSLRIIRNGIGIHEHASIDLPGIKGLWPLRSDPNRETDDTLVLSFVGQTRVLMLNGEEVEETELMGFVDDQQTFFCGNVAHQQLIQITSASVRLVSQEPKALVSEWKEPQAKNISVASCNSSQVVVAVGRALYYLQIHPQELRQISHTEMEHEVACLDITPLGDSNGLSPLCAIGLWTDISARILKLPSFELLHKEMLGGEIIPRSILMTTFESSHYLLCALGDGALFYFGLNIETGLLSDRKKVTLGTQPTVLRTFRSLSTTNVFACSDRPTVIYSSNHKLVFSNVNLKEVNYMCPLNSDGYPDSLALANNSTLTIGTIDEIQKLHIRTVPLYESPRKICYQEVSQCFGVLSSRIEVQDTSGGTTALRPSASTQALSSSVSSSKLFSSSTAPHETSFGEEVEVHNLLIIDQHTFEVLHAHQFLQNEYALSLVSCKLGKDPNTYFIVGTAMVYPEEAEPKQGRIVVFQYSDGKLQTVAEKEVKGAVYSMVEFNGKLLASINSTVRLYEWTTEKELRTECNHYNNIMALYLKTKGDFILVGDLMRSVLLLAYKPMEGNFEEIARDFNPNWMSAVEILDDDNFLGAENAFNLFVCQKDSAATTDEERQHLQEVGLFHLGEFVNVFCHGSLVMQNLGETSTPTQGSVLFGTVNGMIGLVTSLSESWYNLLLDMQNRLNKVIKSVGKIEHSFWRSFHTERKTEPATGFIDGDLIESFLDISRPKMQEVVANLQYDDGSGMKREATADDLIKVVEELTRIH

Row | binding [1] | Substance | binding (Tap-CTIP2) | binding (HA-Vpr wt (HIV-1)) | binding (FLAG-DCAF1) | other results
1 | binds | FLAG-DCAF1 (from UniProt Q9Y4B6 1-1507) | binds | – | – | –
2 | binds | HDAC2 (from UniProt Q92769 1-488) (enzyme) | – | – | binds | –

Further lines, the substance ahead of its results:

Row | Substance | binding [1] | binding (Tap-CTIP2) | binding (HA-Vpr wt (HIV-1)) | binding (FLAG-DCAF1) | other results
3 | Myc-DDB1 (from UniProt Q16531 1-1140) | – | binds | binds | – | –
4 | RFP-CTIP2 (from UniProt Q9C0K0 1-894) | – | – | – | – | binding (GFP-DCAF1): binds
5 | Tap-CTIP2 (from UniProt Q9C0K0 1-894) | – | – | binds | – | –
6 | CTIP2 (construct not stated) (from UniProt Q9C0K0 1-894) | – | – | binds | binds | –

Source: publication PMC6739472
